# Values of other authors, collected in patent publication US20250114367A1, “METHOD OF TREATING HAIR LOSS DISORDERS” (Sun Pharmaceutical Industries, Inc., priority 2023, published 2025).
# At least one compound was matched to its structure with a doubt left.
# Test system: subjects with AA
# Settings: baricitinib 4 mg; up to 52 weeks; FIG. 13B; cited from earlier work
smiles,measurement,value
CCS(=O)(=O)N1CC(CC#N)(n2cc(-c3ncnc4[nH]ccc34)cn2)C1 [baricitinib],proportion of participants achieving SALT ≤20,≤ 50%
